{"source": "patent US20230346837A1", "key": {"[1]": {"molecular_target": "HLA-B*44:02 (human)", "assay": "UV ligand-exchange ELISA (anti-b2m); exchange yield >10%=+, >20%=++, >50%=+++, >75%=++++", "conditions": "remark: other sources report otherwise"}, "[2]": {"molecular_target": "HLA-B*44:02 (human)", "assay": "UV ligand-exchange ELISA (anti-b2m); exchange yield >10%=+, >20%=++, >50%=+++, >75%=++++"}}, "note": "Like-named read-outs stand apart in the source and are kept apart here. Results are given in words; binding and its absence hold for the method and conditions named. Binding calls can cover weak binding; strength is not graded here.", "data": [{"binder": "QQATPGPAY", "note": "[…]", "values": [{"measurement": "binding", "setting": "[1]", "value": "binds"}, {"measurement": "binding", "setting": "[2]", "value": "binds"}]}]}
